Results are given in words; binding and its absence hold for the method and conditions named. Some binding calls cover weakened binding; strength is not graded here. For some assays here: Tags and fused reporters may be left off the sequences shown.
T1: eIF2Bγ (GCD1-Flag2-His6), co-overexpressed with other eIF2B subunits (yeast (Saccharomyces cerevisiae)) (UniProt P09032)
T1 sequence: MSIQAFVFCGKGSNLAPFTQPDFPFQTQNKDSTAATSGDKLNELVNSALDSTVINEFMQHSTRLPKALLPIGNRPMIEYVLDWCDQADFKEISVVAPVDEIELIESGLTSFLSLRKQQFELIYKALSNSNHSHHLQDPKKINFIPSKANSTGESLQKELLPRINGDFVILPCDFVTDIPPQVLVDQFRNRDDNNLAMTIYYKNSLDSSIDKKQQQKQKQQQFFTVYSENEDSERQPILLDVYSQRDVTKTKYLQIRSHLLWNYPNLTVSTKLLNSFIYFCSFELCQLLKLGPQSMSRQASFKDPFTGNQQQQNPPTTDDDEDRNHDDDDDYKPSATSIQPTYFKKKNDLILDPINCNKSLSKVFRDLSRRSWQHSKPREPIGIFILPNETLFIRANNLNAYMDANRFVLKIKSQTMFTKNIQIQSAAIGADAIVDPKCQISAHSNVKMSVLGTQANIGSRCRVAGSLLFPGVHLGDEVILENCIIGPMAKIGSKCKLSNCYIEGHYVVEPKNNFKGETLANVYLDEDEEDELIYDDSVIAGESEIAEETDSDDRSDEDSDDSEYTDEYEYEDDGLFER

The chains behind the UniProt entries cited, without tags or fusion partners. Where a name states a change or a piece, a line headed by the entry shows the natural chain unless it says otherwise.
UniProt P38431: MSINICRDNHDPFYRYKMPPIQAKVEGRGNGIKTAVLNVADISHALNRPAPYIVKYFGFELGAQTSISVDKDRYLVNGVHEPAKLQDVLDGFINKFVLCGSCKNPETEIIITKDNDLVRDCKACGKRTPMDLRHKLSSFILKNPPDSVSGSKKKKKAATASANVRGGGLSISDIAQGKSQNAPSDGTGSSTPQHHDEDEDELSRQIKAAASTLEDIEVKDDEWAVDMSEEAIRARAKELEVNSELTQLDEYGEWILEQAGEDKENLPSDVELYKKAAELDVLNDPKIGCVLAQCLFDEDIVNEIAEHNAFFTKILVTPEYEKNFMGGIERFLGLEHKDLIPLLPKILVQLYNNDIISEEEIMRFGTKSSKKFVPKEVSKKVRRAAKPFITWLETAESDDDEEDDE
UniProt P14741: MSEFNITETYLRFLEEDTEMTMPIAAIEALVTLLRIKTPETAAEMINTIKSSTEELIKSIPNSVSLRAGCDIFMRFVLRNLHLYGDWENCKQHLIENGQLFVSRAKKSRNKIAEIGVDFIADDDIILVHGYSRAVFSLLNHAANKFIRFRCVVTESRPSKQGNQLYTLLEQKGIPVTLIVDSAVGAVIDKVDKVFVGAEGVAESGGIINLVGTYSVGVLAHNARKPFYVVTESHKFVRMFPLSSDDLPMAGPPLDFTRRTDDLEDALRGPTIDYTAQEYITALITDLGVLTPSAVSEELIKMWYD

B1: eIF2Bɛ (GCD6), co-overexpressed with eIF2Bγ (protein, UniProt P32501 1-712)
chain: MAGKKGQKKSGLGNHGKNSDMDVEDRLQAVVLTDSYETRFMPLTAVKPRCLLPLANVPLIEYTLEFLAKAGVHEVFLICSSHANQINDYIENSKWNLPWSPFKITTIMSPEARCTGDVMRDLDNRGIITGDFILVSGDVLTNIDFSKMLEFHKKMHLQDKDHISTMCLSKASTYPKTRTIEPAAFVLDKSTSRCIYYQDLPLPSSREKTSIQIDPELLDNVDEFVIRNDLIDCRIDICTSHVPLIFQENFDYQSLRTDFVKGVISSDILGKHIYAYLTDEYAVRVESWQTYDTISQDFLGRWCYPLVLDSNIQDDQTYSYESRHIYKEKDVVLAQSCKIGKCTAIGSGTKIGEGTKIENSVIGRNCQIGENIRIKNSFIWDDCIIGNNSIIDHSLIASNATLGSNVRLNDGCIIGFNVKIDDNMDLDRNTKISASPLKNAGSRMYDNESNEQFDQDLDDQTLAVSIVGDKGVGYIYESEVSDDEDSSTEACKEINTLSNQLDELYLSDDSISSATKKTKKRRTMSVNSIYTDREEIDSEFEDEDFEKEGIATVERAMENNHDLDTALLELNTLRMSMNVTYHEVRIATITALLRRVYHFIATQTLGPKDAVVKVFNQWGLLFKRQAFDEEEYIDLMNIIMEKIVEQSFDKPDLILFSALVSLYDNDIIEEDVIYKWWDNVSTDPRYDEVKKLTVKWVEWLQNADEESSSEEE

Columns and labels:
[1] = biological target: GST-eIF5 (yeast (Saccharomyces cerevisiae)) (UniProt P38431); test: pull-down; GDF assay (competition): 1 µg eIF2 or eIF2αP and 1 µg GST-eIF5 bound to glutathione sepharose beads 2 h at 4°C, washed, then challenged 2 h at 4°C with increasing concentrations of Flag-eIF2B complexes, subunits or eIF5-Flag; 30 mM HEPES, 100 mM KCl, 100 µM GDP, 5 mM DTT, 1 mM NaF, 2.5 mM MgCl2, 0.05% Triton X-100; bound eIF2 by immunoblot; fit y = 1 − [x/(x + IC50)]; both purified
[2] = biological target: T1, eIF2Bγ (GCD1-Flag2-His6), co-overexpressed with other eIF2B subunits (yeast (Saccharomyces cerevisiae)); test: Flag affinity co-purification; eIF2B subunits co-overexpressed in yeast from high-copy plasmids; bound to Flag M2 affinity resin and eluted with 3xFlag peptide; subunit composition of the eluate

Row | Molecule | binding [1] | binding [2]
1 | eIF2B complex (five subunits α, β, γ, δ, ɛ) (from UniProt P14741 1-305; P32502 1-381; P09032 1-578; P12754 1-651; P32501 1-712) | no binding | 
2 | B1 |  | binds
